Results published in the supplement of paper PMC11006884.
The entries are a selection whose mix differs from that of the whole data set.

The chains behind the UniProt entries cited, without tags or fusion partners. Where a name states a change or a piece, a line headed by the entry shows the natural chain unless it says otherwise.
UniProt P51617, whole entry, looked up: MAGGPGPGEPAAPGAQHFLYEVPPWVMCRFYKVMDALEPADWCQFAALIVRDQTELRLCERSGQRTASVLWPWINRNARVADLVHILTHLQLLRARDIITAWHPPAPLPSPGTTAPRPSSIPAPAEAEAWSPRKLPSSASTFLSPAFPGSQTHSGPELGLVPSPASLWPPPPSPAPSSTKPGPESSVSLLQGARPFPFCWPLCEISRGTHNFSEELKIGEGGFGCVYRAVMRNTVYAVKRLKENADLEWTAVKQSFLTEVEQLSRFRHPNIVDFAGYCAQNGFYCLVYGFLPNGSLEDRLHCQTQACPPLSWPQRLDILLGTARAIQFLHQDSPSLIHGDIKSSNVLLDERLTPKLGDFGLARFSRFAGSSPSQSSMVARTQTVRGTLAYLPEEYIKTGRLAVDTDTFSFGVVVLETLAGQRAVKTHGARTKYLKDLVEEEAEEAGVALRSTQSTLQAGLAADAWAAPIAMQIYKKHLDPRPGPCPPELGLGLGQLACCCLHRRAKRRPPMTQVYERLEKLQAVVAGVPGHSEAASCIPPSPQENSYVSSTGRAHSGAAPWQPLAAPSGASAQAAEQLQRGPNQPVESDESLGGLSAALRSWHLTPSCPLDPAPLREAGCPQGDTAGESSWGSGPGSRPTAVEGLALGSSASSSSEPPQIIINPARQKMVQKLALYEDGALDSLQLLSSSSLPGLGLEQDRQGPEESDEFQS
UniProt P46109: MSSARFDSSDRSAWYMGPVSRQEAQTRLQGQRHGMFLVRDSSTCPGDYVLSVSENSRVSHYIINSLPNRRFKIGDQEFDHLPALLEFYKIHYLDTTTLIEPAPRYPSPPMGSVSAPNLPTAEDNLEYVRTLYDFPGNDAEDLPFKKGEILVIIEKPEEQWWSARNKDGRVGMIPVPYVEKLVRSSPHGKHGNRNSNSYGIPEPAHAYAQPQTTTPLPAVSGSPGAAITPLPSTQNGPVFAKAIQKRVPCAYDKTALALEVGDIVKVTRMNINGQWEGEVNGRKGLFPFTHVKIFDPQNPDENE
UniProt P43304: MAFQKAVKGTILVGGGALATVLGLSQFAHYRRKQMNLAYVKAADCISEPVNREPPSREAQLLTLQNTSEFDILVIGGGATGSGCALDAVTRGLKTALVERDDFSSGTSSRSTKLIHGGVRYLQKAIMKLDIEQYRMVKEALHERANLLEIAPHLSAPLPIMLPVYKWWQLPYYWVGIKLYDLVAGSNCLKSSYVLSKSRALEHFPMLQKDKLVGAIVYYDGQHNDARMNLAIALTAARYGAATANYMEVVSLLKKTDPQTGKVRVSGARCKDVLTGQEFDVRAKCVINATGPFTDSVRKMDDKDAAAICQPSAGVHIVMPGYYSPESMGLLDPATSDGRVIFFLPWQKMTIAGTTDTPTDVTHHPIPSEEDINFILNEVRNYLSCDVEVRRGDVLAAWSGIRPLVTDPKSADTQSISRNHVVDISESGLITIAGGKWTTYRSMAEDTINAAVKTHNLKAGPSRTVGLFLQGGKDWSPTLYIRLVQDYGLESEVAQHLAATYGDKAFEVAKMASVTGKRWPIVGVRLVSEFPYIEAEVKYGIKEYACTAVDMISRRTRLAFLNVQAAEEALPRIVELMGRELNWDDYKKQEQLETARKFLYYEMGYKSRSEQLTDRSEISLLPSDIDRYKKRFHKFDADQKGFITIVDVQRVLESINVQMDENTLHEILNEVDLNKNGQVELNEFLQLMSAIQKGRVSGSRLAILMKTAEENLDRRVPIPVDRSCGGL
UniProt P49848, whole entry: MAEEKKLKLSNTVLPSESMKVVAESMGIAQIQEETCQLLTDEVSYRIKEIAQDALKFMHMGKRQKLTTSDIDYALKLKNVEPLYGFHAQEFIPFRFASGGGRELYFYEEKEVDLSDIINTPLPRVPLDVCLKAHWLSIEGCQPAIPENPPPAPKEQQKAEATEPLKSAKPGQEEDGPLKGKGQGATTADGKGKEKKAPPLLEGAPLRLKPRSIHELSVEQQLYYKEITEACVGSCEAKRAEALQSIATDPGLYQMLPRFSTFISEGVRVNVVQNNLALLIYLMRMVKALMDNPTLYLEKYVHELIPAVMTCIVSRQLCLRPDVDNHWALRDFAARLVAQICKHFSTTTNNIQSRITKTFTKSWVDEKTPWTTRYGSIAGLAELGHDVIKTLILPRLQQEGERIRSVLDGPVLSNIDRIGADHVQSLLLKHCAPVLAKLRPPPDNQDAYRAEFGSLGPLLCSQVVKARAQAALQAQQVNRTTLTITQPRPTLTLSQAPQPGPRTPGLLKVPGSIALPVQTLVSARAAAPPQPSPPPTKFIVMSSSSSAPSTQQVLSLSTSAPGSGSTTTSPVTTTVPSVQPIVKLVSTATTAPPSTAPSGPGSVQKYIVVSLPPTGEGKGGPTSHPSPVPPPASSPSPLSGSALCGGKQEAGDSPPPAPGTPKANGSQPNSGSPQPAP
UniProt P48643, whole entry, looked up: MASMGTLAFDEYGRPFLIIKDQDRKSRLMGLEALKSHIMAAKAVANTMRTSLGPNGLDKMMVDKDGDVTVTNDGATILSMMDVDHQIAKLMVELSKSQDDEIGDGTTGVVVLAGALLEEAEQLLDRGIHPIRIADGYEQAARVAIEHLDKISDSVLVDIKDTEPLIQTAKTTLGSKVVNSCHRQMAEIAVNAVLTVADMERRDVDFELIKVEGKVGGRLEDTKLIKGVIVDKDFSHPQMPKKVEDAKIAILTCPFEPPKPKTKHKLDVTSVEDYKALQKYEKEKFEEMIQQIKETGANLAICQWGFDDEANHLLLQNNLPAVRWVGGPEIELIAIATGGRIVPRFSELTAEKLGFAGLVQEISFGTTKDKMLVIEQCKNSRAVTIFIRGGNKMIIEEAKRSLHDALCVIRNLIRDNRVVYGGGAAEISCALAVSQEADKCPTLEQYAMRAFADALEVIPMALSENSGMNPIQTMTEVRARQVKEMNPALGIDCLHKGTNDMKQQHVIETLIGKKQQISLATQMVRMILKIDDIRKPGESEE
UniProt P50213: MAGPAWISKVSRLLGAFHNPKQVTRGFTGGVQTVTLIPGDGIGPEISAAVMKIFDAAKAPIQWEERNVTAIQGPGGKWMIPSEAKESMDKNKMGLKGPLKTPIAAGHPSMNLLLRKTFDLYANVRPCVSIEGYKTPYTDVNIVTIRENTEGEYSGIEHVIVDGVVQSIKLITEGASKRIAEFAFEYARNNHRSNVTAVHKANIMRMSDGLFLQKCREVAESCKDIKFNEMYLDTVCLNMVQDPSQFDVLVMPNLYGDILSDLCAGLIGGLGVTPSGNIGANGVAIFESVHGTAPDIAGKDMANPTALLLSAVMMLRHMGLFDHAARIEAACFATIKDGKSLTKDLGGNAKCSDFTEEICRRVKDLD
UniProt P49903: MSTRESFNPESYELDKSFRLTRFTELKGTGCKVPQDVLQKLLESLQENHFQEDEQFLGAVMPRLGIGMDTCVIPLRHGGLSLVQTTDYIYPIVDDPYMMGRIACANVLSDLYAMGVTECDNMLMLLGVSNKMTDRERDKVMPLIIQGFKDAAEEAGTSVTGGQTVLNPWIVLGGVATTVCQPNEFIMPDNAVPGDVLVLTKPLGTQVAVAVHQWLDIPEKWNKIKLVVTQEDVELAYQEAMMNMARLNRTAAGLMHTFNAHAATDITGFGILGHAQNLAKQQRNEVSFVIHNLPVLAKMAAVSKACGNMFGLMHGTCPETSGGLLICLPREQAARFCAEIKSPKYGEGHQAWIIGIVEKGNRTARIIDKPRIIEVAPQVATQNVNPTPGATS
UniProt P49674: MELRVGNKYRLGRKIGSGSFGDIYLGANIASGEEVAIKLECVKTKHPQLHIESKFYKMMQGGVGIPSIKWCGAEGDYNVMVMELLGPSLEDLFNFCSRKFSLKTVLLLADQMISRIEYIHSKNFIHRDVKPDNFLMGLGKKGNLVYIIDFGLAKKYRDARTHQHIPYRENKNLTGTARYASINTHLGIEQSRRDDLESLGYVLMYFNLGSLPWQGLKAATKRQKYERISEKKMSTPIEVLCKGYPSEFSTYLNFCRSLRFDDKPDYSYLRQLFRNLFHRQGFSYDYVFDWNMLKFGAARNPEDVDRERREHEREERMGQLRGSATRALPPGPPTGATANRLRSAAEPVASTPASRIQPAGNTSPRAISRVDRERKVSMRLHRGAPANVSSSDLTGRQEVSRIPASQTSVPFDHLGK
UniProt P49753: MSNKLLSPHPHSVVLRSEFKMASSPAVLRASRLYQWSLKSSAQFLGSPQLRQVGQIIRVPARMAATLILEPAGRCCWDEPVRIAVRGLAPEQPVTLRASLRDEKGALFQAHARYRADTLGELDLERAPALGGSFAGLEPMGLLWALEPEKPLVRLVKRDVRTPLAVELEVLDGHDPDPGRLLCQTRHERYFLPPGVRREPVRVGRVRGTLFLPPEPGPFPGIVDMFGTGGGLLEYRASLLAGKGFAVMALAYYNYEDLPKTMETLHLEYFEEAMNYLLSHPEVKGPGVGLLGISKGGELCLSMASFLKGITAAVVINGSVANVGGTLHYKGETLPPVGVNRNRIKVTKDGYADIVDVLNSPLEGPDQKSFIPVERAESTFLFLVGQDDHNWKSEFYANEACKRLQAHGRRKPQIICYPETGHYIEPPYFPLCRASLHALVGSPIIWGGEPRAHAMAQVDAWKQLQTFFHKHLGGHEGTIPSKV
UniProt P46459: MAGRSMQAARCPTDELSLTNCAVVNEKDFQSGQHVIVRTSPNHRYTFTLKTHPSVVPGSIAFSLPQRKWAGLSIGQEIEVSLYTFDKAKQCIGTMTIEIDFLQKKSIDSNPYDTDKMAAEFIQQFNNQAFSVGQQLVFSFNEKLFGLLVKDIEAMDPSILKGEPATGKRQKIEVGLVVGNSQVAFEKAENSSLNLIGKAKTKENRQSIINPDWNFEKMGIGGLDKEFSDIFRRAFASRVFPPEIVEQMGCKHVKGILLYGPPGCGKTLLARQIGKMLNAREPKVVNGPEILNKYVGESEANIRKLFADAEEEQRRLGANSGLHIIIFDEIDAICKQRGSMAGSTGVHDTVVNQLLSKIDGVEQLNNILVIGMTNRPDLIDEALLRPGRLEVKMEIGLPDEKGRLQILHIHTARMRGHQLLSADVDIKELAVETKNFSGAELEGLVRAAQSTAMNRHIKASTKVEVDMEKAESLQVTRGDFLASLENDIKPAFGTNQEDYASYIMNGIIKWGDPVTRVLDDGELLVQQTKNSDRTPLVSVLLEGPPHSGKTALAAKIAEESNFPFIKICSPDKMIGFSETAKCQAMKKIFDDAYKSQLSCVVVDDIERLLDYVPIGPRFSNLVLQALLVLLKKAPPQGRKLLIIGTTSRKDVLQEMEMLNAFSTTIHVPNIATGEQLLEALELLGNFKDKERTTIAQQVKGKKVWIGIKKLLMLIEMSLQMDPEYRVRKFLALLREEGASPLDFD
UniProt P45880: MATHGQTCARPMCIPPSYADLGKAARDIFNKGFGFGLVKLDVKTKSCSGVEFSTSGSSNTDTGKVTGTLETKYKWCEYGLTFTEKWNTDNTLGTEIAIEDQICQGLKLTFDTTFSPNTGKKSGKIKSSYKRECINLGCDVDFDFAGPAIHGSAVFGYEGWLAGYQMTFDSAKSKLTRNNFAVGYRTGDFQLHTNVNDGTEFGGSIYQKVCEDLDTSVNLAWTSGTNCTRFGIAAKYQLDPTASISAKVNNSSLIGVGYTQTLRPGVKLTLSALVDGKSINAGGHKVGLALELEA
UniProt P50502: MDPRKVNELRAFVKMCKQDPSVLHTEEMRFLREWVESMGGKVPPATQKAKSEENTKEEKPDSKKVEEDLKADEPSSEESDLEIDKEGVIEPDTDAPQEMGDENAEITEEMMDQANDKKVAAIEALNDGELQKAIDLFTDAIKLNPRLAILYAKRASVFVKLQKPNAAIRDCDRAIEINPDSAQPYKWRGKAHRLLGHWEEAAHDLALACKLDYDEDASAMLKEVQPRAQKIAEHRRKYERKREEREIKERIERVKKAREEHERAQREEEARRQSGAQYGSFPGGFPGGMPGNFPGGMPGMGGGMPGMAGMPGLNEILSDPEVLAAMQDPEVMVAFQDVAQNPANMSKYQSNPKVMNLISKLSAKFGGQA
UniProt P50991: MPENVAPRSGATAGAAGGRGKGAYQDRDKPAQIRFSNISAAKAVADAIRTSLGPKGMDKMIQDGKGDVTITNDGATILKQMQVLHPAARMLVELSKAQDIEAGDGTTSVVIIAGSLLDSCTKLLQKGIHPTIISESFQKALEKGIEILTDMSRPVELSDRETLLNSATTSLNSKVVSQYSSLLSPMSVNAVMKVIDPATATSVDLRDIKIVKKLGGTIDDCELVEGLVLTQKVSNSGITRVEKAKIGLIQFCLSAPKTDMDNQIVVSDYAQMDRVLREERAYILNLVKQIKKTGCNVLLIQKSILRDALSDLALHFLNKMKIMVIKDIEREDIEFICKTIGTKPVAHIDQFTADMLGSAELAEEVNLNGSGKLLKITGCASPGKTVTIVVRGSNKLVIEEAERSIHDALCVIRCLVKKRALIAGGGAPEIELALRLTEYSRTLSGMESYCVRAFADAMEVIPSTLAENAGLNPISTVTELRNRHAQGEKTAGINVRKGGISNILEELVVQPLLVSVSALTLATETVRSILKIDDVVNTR

The targets below were run with COC(=O)C#Cc1ccccc1 [methyl 3-phenylpropiolate] (assay: log2 ratio of iodoacetamide-alkyne labeling of the cysteine site, DMSO over compound (competition); higher = stronger covalent engagement of the cysteine by the compound, active = 1 or more). Details: 500 µM; treatment time 1 h; system: HEK293T cell lysate.
In short: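 HEK293T lysate at 2 mg/mL was treated with vehicle or electrophile (500 µM) for 1 h at ambient temperature, then labelled with iodoacetamide alkyne (1 h), clicked to sCIP-TMT reagents, pooled, digested with trypsin overnight at 37 °C, enriched on streptavidin and eluted with acid. Peptides were analysed by Orbitrap Eclipse LC-MS/MS with FAIMS and quantified in FragPipe, using duplicate channels and three replicates, with cysteines quantified in only one replicate excluded. The log2 competition ratio for each cysteine is the mean control-channel reporter intensity divided by the mean compound-channel reporter intensity.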

| Target | log2 ratio of iodoacetamide-alkyne labeling |
| --- | --- |
| IRAK1 C620 (UniProt P51617) | inactive: 0.455 |
| CRKL C44 (UniProt P46109) | inactive: 0.103 |
| GPD2 C285 (UniProt P43304) | inactive: 0.152 |
| TAF6 C431 (UniProt P49848) | inactive: 0.218 |
| RANBP2 C188 (UniProt P49792) | inactive: 0.545 |
| CCT5 C407 (UniProt P48643) | inactive: 0.0369 |
| IDH3A C127 (UniProt P50213) | inactive: 0.245 |
| UniProt P49591_C117 | inactive: 0.0247 |
| SEPHS1 C71 (UniProt P49903) | inactive: 0.038 |
| UniProt P49674_C255 | inactive: 0.112 |
| FASN C2024 (UniProt P49327) | inactive: 0.0332 |
| NUP153 C404 (UniProt P49790) | inactive: 0.515 |
| CCT3 C455 (UniProt P49368) | inactive: 0.0979 |
| CCT3 C279 (UniProt P49368) | inactive: -0.00266 |
| UniProt P49753_C401 | inactive: 0.0763 |
| NSF C568 (UniProt P46459) | inactive: 0.221 |
| VDAC2 C13 (UniProt P45880) | active: 1.11 |
| VDAC2 C227 (UniProt P45880) | active: 1.39 |
| ST13 C209 (UniProt P50502) | inactive: 0.272 |
| RANBP2 C1335 (UniProt P49792) | inactive: 0.226 |
| CCT4 C295 (UniProt P50991) | inactive: 0.173 |
| NSF C11 (UniProt P46459) | inactive: 0.206 |

Some of the entries so far, with bars between the fields:
Target | log2 ratio of iodoacetamide-alkyne labeling
VDAC2 C13 (UniProt P45880) | active: 1.11
VDAC2 C227 (UniProt P45880) | active: 1.39
